# This is one part of the list. Measured potencies and affinities stand elsewhere.
# System: Pseudomonas aeruginosa
# Settings: Concentration 20 uM; ASSAY_TEST Inhibition of Bacterial Growth; detection method Absorption (OD600); MEDIA CAMHB; plate type 384well; NBS; CORNING #3640; time 18 hr
row,Compound,Inhibition
1,CC(CCCCC(=O)Nc1ccc(C(F)(F)F)cc1)NCCc1c[nH]cn1.O=C(O)/C=C\C(=O)O.O=C(O)/C=C\C(=O)O (stereo unspecified),23.47%
2,C=C(CC)C(=O)c1ccc(OCC(=O)O)c(Cl)c1Cl [ETHACRYNIC ACID],11.3%
3,CN(C)CC/C=C1/c2ccccc2COc2ccc(CC(=O)O)cc21.Cl [OLOPATADINE HYDROCHLORIDE],-7.29%
4,CC1=C(C(=O)O)N2C(=O)[C@@H](NC(=O)[C@H](N)c3ccccc3)[C@H]2SC1.O [CEPHALEXIN],-10.13%
5,CCOC(=O)N1CCC(=C2c3ccc(Cl)cc3CCc3cccnc32)CC1 [LORATADINE],15.05%
6,Sc1ncnc2nc[nH]c12 [MERCAPTOPURINE ANHYDROUS],11.75%
7,O=C1C(c2c(O)[nH]c3ccccc23)=Nc2ccccc21,5.7%
8,O=C1N[C@H](C(=O)O)CS1 [PROCYSTEINE],15.77%
9,C[C@H](N[C@@H](CCc1ccccc1)C(=O)O)C(=O)N1CCC[C@H]1C(=O)O [ENALAPRILAT ANHYDROUS],3.43%
10,COC(=O)[C@H](c1ccccc1Cl)N1CCc2sccc2C1 [CLOPIDOGREL],15.58%
11,CCCSc1ccc2[nH]c(NC(=O)OC)nc2c1 [ALBENDAZOLE],1.7%
12,Cc1ccc(N(CC2=NCCN2)c2cccc(O)c2)cc1 [PHENTOLAMINE],4.16%
13,O=C(O)CCc1nc(-c2ccccc2)c(-c2ccccc2)o1 [OXAPROZIN],23.23%
14,Clc1ccc2c(c1)C(N1CCNCC1)=Nc1ccccc1O2 [AMOXAPINE],14.02%
15,CCN(CC)CCNC(=O)c1cc(Cl)c(N)cc1OC.Cl,3.44%
16,COC(=O)C1=C(C)NC(C)=C(C(=O)OCCN(C)Cc2ccccc2)C1c1cccc([N+](=O)[O-])c1.Cl (stereo unspecified) [NICARDIPINE HYDROCHLORIDE],3.41%
17,Oc1ncc(F)cn1,19.68%
18,CCC[C@@H]1C[C@@H](C(=O)N[C@@H]([C@H]2O[C@H](SC)[C@H](O)[C@@H](O)[C@H]2O)[C@@H](C)O)N(C)C1.Cl.O [LINCOMYCIN HYDROCHLORIDE],18.45%
19,COc1c2occc2cc2ccc(=O)oc12 [METHOXSALEN],9.57%
20,N#Cc1ccc(C(c2ccc(C#N)cc2)n2cncn2)cc1 [LETROZOLE],8.9%
21,CC(=O)OCC(=O)[C@@]1(O)CC[C@H]2[C@@H]3CCC4=CC(=O)C=C[C@]4(C)[C@H]3[C@@H](O)C[C@@]21C [PREDNISOLONE ACETATE],16.93%
22,CN1CCN(CC/C=C2/c3ccccc3Sc3ccc(S(=O)(=O)N(C)C)cc32)CC1 [THIOTHIXENE],4.76%
23,CC(C)(C(=O)O)c1ccc(C(O)CCCN2CCC(C(O)(c3ccccc3)c3ccccc3)CC2)cc1.Cl (stereo unspecified) [FEXOFENADINE HYDROCHLORIDE],17.28%
24,CCC(=O)[N-]S(=O)(=O)c1ccc(-c2c(-c3ccccc3)noc2C)cc1.[Na+] [PARECOXIB SODIUM],7.03%

row,Compound,Inhibition
1,CCN(CC)CC(=O)Nc1c(C)cccc1C [LIDOCAINE],23.12%
2,CNCCCC12CCC(c3ccccc31)c1ccccc12.Cl [MAPROTILINE HYDROCHLORIDE],17%
3,CC(=O)O.CNC(=N)NCCC[C@H](N)C(=O)O [TILARGININE ACETATE],-0.05%
4,Cc1cn([C@H]2C=C[C@@H](CO)O2)c(=O)[nH]c1=O [STAVUDINE],16.08%
5,CC(=O)NS(=O)(=O)c1ccc(N)cc1 [SULFACETAMIDE],6.24%
6,NS(=O)(=O)c1cc2c(cc1C(F)(F)F)NCNS2(=O)=O [HYDROFLUMETHIAZIDE],10.41%
7,CN1CCC(=C2c3ccccc3C=Cc3ccccc32)CC1.Cl [CYPROHEPTADINE HYDROCHLORIDE],15.52%
8,CS(=O)(=O)OCCCCOS(C)(=O)=O [BUSULFAN],15.86%
9,CN1C(=O)CC[C@H]1c1cccnc1 [COTININE],2.81%
10,CCCOc1ccc(C(=O)OCCN(CC)CC)cc1N.Cl [PROPARACAINE HYDROCHLORIDE],1.72%
11,CC(C)[N+](C)(CCOC(=O)C1c2ccccc2Oc2ccccc21)C(C)C.[Br-] [PROPANTHELINE BROMIDE],14.79%
12,CCOC(=O)[C@H](CCc1ccccc1)N[C@@H](C)C(=O)N1Cc2ccccc2C[C@H]1C(=O)O.Cl [QUINAPRIL HYDROCHLORIDE],14.62%
13,C[C@@H](O)[C@H]1C(=O)N2C(C(=O)O)=C(S[C@@H]3CN[C@H](C(=O)N(C)C)C3)[C@H](C)[C@H]12 [MEROPENEM],8.16%
14,CS(=O)(=O)O.Cc1c(O)cccc1C(=O)N[C@@H](CSc1ccccc1)[C@H](O)CN1C[C@H]2CCCC[C@H]2C[C@H]1C(=O)NC(C)(C)C [NELFINAVIR MESYLATE],9.77%
15,C[C@]12CC[C@@H]3c4ccc(OS(=O)(=O)[O-])cc4CC[C@H]3[C@@H]1CCC2=O.[Na+] [ESTRONE SODIUM SULFATE],7.52%
16,Nc1nc(Cl)nc2c1ncn2[C@@H]1O[C@H](CO)[C@@H](O)[C@H]1O,14.41%
17,O=c1c(O[C@@H]2O[C@H](CO)[C@H](O)[C@H](O)[C@H]2O)c(-c2ccc(O)c(O)c2)oc2cc(O)cc(O)c12 [HYPEROSIDE],12.67%
18,O=C1N=C([O-])NC1(c1ccccc1)c1ccccc1.[Na+] [PHENYTOIN SODIUM],8.36%
19,OCCN(CCO)c1nc(N2CCCCC2)c2nc(N(CCO)CCO)nc(N3CCCCC3)c2n1 [DIPYRIDAMOLE],9.85%
20,COCCCC/C(=N\OCCN)c1ccc(C(F)(F)F)cc1.O=C(O)/C=C\C(=O)O [FLUVOXAMINE MALEATE],8.03%
21,O=C1c2c(O)cc(O)cc2O[C@H](c2ccc(O)c(O)c2)[C@@H]1O,14.99%
22,CN(C)CCC(c1ccc(Cl)cc1)c1ccccn1.O=C(O)/C=C\C(=O)O (stereo unspecified) [CHLORPHENIRAMINE MALEATE],18.65%
23,O=C(O)c1cc(/N=N/c2ccc(S(=O)(=O)Nc3ccccn3)cc2)ccc1O [SULFASALAZINE],7.1%
24,COc1ccc(OC)c(C(O)CNC(=O)CN)c1.Cl (stereo unspecified) [MIDODRINE HYDROCHLORIDE],15.97%

# Reformatted bar-delimited: entries from further up.
row | Compound | Inhibition
13 | C[C@@H](O)[C@H]1C(=O)N2C(C(=O)O)=C(S[C@@H]3CN[C@H](C(=O)N(C)C)C3)[C@H](C)[C@H]12 [MEROPENEM] | 8.16%
14 | CS(=O)(=O)O.Cc1c(O)cccc1C(=O)N[C@@H](CSc1ccccc1)[C@H](O)CN1C[C@H]2CCCC[C@H]2C[C@H]1C(=O)NC(C)(C)C [NELFINAVIR MESYLATE] | 9.77%

# More results.

row,Compound,Inhibition
1,CC(N)C12CC3CC(CC(C3)C1)C2.Cl (stereo unspecified) [RIMANTADINE HYDROCHLORIDE],8.62%
2,CC1(C)S[C@@H]2[C@H](/N=C/N3CCCCCC3)C(=O)N2[C@H]1C(=O)O [AMDINOCILLIN],20.19%
3,CCN(CC)CCOC(=O)c1ccc(N)cc1.Cl [PROCAINE HYDROCHLORIDE],12.48%
4,Cc1cc2c(s1)Nc1ccccc1N=C2N1CCN(C)CC1 [OLANZAPINE],33%
5,Cc1nc2ccccn2c(=O)c1CCN1CCC(C(=O)c2ccc(F)cc2)CC1 [PIRENPERONE],9.74%
6,CSc1nc2cc(Cl)c(Oc3cccc(Cl)c3Cl)cc2[nH]1 [TRICLABENDAZOLE],14.05%
7,O=C(CCNNC(=O)c1ccncc1)NCc1ccccc1 [NIALAMIDE],16.52%
8,NC(=O)c1cnccn1 [PYRAZINAMIDE],13.64%
9,Cc1ncc([N+](=O)[O-])n1CC(C)O (stereo unspecified) [SECNIDAZOLE],10.92%
10,NC(Cc1cc(I)c(Oc2ccc(O)c(I)c2)c(I)c1)C(=O)O (stereo unspecified) [RATHYRONINE],15.38%
11,CC(=O)CCCCn1c(=O)c2c(ncn2C)n(C)c1=O [PENTOXIFYLLINE],13.94%
12,O=C(NCCN1CCOCC1)c1ccc(Cl)cc1 [MOCLOBEMIDE],7.86%
13,CC(C(O)c1ccc(O)cc1)N1CCC(Cc2ccccc2)CC1.O.O=C(O)C(O)C(O)C(=O)O (stereo unspecified),38.67%
14,C[C@]12CCC(=O)C=C1CC[C@@H]1[C@@H]2C(=O)C[C@@]2(C)[C@H]1CC[C@]2(O)C(=O)CO [CORTISONE],19.36%
15,C[C@@H]1C[C@H]2[C@@H]3C[C@H](F)C4=CC(=O)C(Cl)=C[C@]4(C)[C@@]3(F)[C@@H](O)C[C@]2(C)[C@@]1(O)C(=O)CO [HALOMETASONE],3.47%
16,CC(=O)CCCCn1cnc2c1c(=O)n(C)c(=O)n2C [LOMIFYLLINE],10.51%
17,CC(=O)OCC(=O)NCCCOc1cccc(CN2CCCCC2)c1.Cl [ROXATIDINE ACETATE HYDROCHLORIDE],15.86%
18,CC(=O)O[C@]1(C(C)=O)CC[C@H]2[C@@H]3C[C@H](C)C4=CC(=O)CC[C@]4(C)[C@H]3CC[C@@]21C [MEDROXYPROGESTERONE ACETATE],8.66%
19,CCC(=C(c1ccccc1)c1ccc(OCCN(C)C)cc1)c1ccccc1,6.08%
20,O=c1c(O[C@@H]2O[C@H](CO)[C@@H](O)[C@H](O)[C@H]2O)c(-c2ccc(O)c(O)c2)oc2cc(O)cc(O)c12 [ISOQUERCETIN],60.53%
21,CCCCNc1cc(C(=O)O)cc(S(N)(=O)=O)c1Oc1ccccc1 [BUMETANIDE],10.04%
22,Cl.NC12CC3CC(CC(C3)C1)C2 [AMANTADINE HYDROCHLORIDE],10.58%
23,CN(C)CCOC(C)(c1ccccc1)c1ccccn1.O=C(O)CCC(=O)O (stereo unspecified) [DOXYLAMINE SUCCINATE],8.6%
